Results as given in paper PMC3667761.
Results are given in words; binding and its absence hold for the method and conditions named. In cells and extracts the contact can be indirect. Some entries that bind do so weakly or less than the wild type.

Chains of the proteins cited; added tags and fusions are not shown. Lines headed by an entry give the natural chain unless they say otherwise; changes in a name come on top.
UniProt P30281: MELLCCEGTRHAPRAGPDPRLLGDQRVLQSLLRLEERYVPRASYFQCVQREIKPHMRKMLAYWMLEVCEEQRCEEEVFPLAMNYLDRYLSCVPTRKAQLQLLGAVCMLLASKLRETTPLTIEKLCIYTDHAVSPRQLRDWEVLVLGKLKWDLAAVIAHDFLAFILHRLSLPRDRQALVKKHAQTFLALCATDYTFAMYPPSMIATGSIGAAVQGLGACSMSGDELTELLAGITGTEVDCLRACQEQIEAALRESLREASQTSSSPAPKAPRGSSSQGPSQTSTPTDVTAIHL
UniProt P38936: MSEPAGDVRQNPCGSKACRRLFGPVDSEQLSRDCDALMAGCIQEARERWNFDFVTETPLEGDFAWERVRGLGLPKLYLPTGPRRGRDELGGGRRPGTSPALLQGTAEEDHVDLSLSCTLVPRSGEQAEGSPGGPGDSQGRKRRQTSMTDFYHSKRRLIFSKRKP
UniProt P24385: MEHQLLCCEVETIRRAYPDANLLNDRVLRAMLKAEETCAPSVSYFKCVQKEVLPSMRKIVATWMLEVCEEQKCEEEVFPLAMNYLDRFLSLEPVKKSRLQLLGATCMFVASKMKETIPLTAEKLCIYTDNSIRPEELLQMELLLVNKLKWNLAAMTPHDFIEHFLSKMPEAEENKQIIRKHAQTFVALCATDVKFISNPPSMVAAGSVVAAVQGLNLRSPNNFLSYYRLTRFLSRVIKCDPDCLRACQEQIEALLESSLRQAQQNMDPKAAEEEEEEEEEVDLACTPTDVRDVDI
UniProt Q00534: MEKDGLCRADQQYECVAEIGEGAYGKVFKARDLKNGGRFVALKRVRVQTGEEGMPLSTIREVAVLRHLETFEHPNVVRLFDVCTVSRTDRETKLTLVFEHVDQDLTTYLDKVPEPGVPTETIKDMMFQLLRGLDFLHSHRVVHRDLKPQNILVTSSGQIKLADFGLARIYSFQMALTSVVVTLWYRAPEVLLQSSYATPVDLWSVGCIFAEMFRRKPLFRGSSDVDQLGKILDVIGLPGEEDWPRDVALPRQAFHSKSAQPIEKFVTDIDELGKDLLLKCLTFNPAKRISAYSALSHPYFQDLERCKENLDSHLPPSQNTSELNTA

Tests used:
[1] = target: cyclin D3 (human (endogenous in HCT116)) (UniProt P30281); assay: co-IP; endogenous proteins from HCT116 lysates (wt, K7AS, p21-null); IP with anti-cyclin D1 (DCS-11), anti-cyclin D3 (DCS-28) or anti-p21 (C-19); SDS-PAGE or 2D gel and immunoblot; cells serum-deprived or stimulated with FBS, with or without 1-NMPP1, roscovitine, CR8, PD0332991 or MG132
[2] = target: p21 (human (endogenous in HCT116)) (UniProt P38936); assay: co-IP; HCT116 K7AS cells with Tet-On inducible S178P CDK6-Flag and cyclin D3, doxycycline and FBS, with or without 1-NMPP1; IP with anti-p21; 2D gel, anti-CDK6 blot
[3] = target: Xpress-cyclin D3 (in CHO cells) (UniProt P30281); assay: co-IP; CHO cells transfected with cyclin D3 (or cyclin D1-Flag), CDK4-HA and p21 or their mutants; IP with anti-cyclin D3 (DCS-28), anti-p21 or anti-Flag; SDS-PAGE or 2D gel and immunoblot; some immunoprecipitates incubated with ATP and recombinant kinases before the gel
[4] = target: cyclin D1-Flag (in CHO cells) (UniProt P24385); assay: as above
[5] = target: cyclin D1 (human (endogenous in HCT116)) (UniProt P24385); assay: co-IP; endogenous proteins from HCT116 lysates (wt, K7AS, p21-null); IP with anti-cyclin D1 (DCS-11), anti-cyclin D3 (DCS-28) or anti-p21 (C-19); SDS-PAGE or 2D gel and immunoblot; cells serum-deprived or stimulated with FBS, with or without 1-NMPP1, roscovitine, CR8, PD0332991 or MG132

## CDK6 (from UniProt Q00534 1-326) (enzyme)
[1]
  binding: binds

## S178P CDK6-Flag (from UniProt Q00534 1-326) (enzyme)
[2]
  binding: binds

## human p21 (in CHO cells) (from UniProt P38936 1-164)
[3]
  binding: binds
[4]
  binding: binds

## human p21 S98A (in CHO cells) (from UniProt P38936 1-164)
[3]
  binding: binds

## human p21 S130A (in CHO cells) (from UniProt P38936 1-164)
[3]
  binding: binds

## human p21 T57A (in CHO cells) (from UniProt P38936 1-164)
[3]
  binding: binds

## p21 (from UniProt P38936 1-164)
[1]
  binding: binds
[5]
  binding: binds
